The values that follow come from article PMC6486619.

Amino acid sequences for entries named in this document (tags omitted). Residues count along the entry.
UniProt P07333, residues 20-972: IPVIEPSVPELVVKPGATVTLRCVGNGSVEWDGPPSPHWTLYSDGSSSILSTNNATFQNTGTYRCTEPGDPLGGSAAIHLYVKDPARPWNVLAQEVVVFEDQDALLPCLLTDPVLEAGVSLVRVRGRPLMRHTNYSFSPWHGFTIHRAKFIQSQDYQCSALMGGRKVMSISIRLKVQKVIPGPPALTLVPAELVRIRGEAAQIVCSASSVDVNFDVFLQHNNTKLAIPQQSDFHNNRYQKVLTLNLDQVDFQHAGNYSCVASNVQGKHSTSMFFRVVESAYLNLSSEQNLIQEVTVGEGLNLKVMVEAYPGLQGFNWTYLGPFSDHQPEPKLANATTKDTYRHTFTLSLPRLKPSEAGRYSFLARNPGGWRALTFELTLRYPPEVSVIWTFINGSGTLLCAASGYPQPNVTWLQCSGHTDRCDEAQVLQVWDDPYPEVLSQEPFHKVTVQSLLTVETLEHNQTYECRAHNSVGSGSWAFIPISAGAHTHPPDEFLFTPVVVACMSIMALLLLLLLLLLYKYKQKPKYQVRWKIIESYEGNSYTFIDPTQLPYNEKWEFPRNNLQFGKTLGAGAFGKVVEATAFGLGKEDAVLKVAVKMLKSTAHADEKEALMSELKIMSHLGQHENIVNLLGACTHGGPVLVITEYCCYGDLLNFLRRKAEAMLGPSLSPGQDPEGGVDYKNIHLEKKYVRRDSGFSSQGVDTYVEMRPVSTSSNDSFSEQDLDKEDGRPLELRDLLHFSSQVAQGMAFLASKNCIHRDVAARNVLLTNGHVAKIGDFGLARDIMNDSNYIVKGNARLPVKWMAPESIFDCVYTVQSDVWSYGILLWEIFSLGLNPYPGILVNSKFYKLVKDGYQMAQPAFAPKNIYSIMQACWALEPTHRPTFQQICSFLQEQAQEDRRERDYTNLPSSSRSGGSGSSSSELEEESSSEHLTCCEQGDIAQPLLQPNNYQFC
UniProt P25490: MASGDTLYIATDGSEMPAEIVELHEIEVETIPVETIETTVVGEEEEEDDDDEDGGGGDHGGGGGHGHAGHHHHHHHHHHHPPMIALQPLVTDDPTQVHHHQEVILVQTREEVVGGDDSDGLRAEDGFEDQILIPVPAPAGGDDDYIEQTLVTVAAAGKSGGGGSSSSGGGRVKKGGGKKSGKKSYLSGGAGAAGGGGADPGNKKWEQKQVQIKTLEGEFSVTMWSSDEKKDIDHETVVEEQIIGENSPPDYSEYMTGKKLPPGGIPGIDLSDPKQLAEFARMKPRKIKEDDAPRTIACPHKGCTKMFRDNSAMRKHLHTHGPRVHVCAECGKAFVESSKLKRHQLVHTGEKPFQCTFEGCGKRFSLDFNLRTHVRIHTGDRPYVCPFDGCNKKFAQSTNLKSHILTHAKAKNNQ

For test [1], the target named is T1, ELK1 (human (endogenous in monocyte-derived macrophages)) (UniProt P19419).
T1 sequence: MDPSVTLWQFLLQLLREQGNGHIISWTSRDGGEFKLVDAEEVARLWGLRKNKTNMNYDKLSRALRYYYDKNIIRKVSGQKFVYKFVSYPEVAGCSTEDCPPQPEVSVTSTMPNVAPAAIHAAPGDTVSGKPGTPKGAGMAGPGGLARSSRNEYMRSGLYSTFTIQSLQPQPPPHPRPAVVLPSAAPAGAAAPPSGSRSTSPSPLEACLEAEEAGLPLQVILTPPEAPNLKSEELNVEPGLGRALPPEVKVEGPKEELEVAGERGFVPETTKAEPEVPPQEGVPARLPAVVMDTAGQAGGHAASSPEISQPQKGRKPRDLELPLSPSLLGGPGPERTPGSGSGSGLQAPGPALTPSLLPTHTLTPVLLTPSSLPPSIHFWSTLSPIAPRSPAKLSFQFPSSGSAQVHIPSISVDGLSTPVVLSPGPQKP
Put plainly: co-IP; human monocytes treated for 3 days with 100 ng/mL CSF-1 (macrophages); IP with anti-ELK1 (sc-365876) or anti-CSF-1R (sc-365719) or control IgG, immunoblot for CSF-1R or YY1; lysis in 50 mM Tris pH 7.4, 150 mM NaCl, 1% NP-40, 10% glycerol.

In test [2] the target is Colony-Stimulating Factor 1 Receptor (CSF-1R) (human (endogenous in primary monocytes)) (UniProt P07333). The test is described as above.

These are yes or no findings as the source states them, for the method shown. Binding seen in cells or lysates may run through a third protein. Some entries that bind do so weakly or less than the wild type.

With “Colony-Stimulating Factor 1 Receptor (CSF-1R) (from UniProt P07333 20-972)”, the binding entry in test [1] was “binds”.
In the case of “YY1 (yin yang 1) (from UniProt P25490 1-414)”, the binding result in test [2] was “binds”.
